At least one compound was matched to its structure with a doubt left.
What was measured:
Type in all cases: biochemical
PDE-1 = experiment: Phosphodiesterase inhibition PDE-1
Description: (§1) Phosphodiesterase inhibition was determined by methods known to one of skill in the art.

PDE-6 = experiment: Phosphodiesterase inhibition PDE-6
Description: as §1

PDE-3 = experiment: Phosphodiesterase inhibition PDE-3
Description: as §1

Compound | IC50 (PDE-1) | IC50 (PDE-6) | IC50 (PDE-3)
CCCc1nc(C)c2c(=O)[nH]c(-c3cc(S(=O)(=O)N(C)CC(=O)N(C)CCOC)ccc3OCC)nn12 [Compound 11] | 34 nM | 6 nM | 2300 nM
CCCc1nc(C)c2c(=O)[nH]c(-c3cc(S(=O)(=O)NC(C)C(=O)N(C)C)ccc3OCC)nn12 (stereo not drawn) [Compound 17] | 35 nM | 2.9 nM | 1100 nM
CCCc1nc(C)c2c(=O)[nH]c(-c3cc(S(=O)(=O)NC(C)C(=O)N(C)C)ccc3OCC)nn12 (stereo not drawn) [Compound 18] | 20 nM | 3 nM | 1700 nM

Source: patent publication US20110172422A1, “Methods of Making Pharmacokinetically Improved Compounds Comprising Functional Residues or Groups and Pharmaceutical Compositions Comprising Said Compounds” (SURFACE LOGIX, INC., priority 2005, published 2011)
